In paper PMC8624189, “Phenolic Profiles and Biological Activities of Extracts from Edible Wild Fruits Ehretia tinifolia and Sideroxylon lanuginosum” (Foods, 2021) one finds IC50 data, which are given here for one molecule.

This assay deals with MCF-7 cells. The assay can be described thus: Antiproliferative activity, Alamar Blue, MCF-7. Conditions: Homo sapiens, MCF7; 24 h exposure; read-out: Half Maximal Inhibitory Concentration MCF-7. The assay is classed as cell-based. On the procedure: The antiproliferative effects of extracts of E. tinifolia and S. lanuginosum were assessed using the method described previously by Viveros-Valdez, et al.. HeLa (ATCC® CCL-2), MCF-7 (ATCC® HTB-22) and HT-29 (ATCC® HTB-38) cancer cell lines were used. The cells were seeded in 25 cm^2 tissue culture flasks in Dulbecco’s modified eagle medium (DMEM) mixed with Ham’s nutrients (Ham’s F-12) and supplemented with 10% fetal bovine serum (FBS), adjusting the pH to 7.2. A mixture of antibiotics composed of penicillin and streptomycin (10,000 IU/mL: 10,000 µg/mL; 1 mL of mixture/1 L of medium) was added. Cells were maintained at 37 °C in an incubator under a 5% CO2/95% air atmosphere at constant humidity. Cells were harvested by trypsinization, counted with a hemocytometer, and their viability was confirmed by Trypan Blue (0.4%). The different cancer cell lines were seeded with 5000 cells per well in a 96 well plate.
(In general: Resazurin is reduced to fluorescent resorufin, in cell work by metabolically active cells.)

Converted amounts (≈) assume the structure as drawn.

Turning to `CC(=O)O[C@H]1C(=O)[C@@]2(C)[C@H]([C@H](OC(=O)c3ccccc3)[C@]3(O)C[C@H](OC(=O)[C@H](O)[C@@H](NC(=O)c4ccccc4)c4ccccc4)C(C)=C1C3(C)C)[C@]1(OC(C)=O)CO[C@@H]1C[C@@H]2O` [taxol, Taxol], the IC50 turned out to be 13 ± 1 µg/mL (≈ 15.2 µM).
